Measurements as given in publication PMC11129471.
No constants are given. Whether binding was seen depends on the method and setting. In cells and extracts the contact can be indirect. These calls come from enrichment with a bait or labelling near it, and not all partners need be listed.

Protein sequences, listed by entry. Tags and fused reporters are not part of them.
UniProt Q9UKB1: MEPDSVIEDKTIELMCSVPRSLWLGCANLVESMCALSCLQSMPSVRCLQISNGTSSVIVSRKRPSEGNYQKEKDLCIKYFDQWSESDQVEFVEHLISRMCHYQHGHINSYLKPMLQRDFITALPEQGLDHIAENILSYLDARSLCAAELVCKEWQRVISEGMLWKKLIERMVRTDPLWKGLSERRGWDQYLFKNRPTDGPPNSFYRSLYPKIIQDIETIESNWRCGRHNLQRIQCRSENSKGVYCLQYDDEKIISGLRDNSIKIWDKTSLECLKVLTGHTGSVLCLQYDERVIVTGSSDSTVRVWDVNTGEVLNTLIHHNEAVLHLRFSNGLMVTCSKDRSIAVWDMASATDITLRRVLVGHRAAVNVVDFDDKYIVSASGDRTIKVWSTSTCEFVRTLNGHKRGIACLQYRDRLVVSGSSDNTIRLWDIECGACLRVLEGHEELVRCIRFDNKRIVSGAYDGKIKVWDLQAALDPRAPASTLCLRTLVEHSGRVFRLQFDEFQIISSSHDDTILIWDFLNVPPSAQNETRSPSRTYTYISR

Target: FBXW11 (UniProt Q9UKB1)
Experiment: affinity purification with mass spectrometry; LC-MS/MS of proteins found with FBXW11; how FBXW11 was isolated and from which cells is not told

B1: TAK1 (protein, UniProt O43318 1-606)
chain: MSTASAASSSSSSSAGEMIEAPSQVLNFEEIDYKEIEVEEVVGRGAFGVVCKAKWRAKDVAIKQIESESERKAFIVELRQLSRVNHPNIVKLYGACLNPVCLVMEYAEGGSLYNVLHGAEPLPYYTAAHAMSWCLQCSQGVAYLHSMQPKALIHRDLKPPNLLLVAGGTVLKICDFGTACDIQTHMTNNKGSAAWMAPEVFEGSNYSEKCDVFSWGIILWEVITRRKPFDEIGGPAFRIMWAVHNGTRPPLIKNLPKPIESLMTRCWSKDPSQRPSMEEIVKIMTHLMRYFPGADEPLQYPCQYSDEGQSNSATSTGSFMDIASTNTSNKSDTNMEQVPATNDTIKRLESKLLKNQAKQQSESGRLSLGASRGSSVESLPPTSEGKRMSADMSEIEARIAATTAYSKPKRGHRKTASFGNILDVPEIVISGNGQPRRRSIQDLTVTGTEPGQVSSRSSSPSVRMITTSGPTSEKPTRSHPWTPDDSTDTNGSDNSIPMAYLTLDHQLQPLAPCPNSKESMAVFEQHCKMAQEYMKVQTEIALLLQRKQELVAELDQDEKDQQNTSRLVQEHKKLLDENKSLSTYYQQCKKQLEVIRSQQQKRQGTS
For B1, the binding was “binds”.
